PubChem BioAssay AID504774, Drosophila RNAi Screening Center, 2011

Test: 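Fly genes whose loss alters survival after alkylation damage to DNA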 (primary screen)
Cells: Drosophila Kc167 cells
Reagents: long dsRNA against Drosophila genes, about 0.25 µg dsRNA per well
Time to read-out: about 6 days: 3 days knock-down, then 3 days with or without MMS
Conditions: methyl methanesulphonate 0.004% (w/v) for 3 days after knock-down
Measured: 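Viability in wells given MMS, read as ATP luminescence, normalised by quantiles plate by plate and averaged across replicates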
Reading the numbers: mean viability with MMS and viability with MMS: higher = more surviving cells after MMS
In all, the deposit lists about 23,000 reagents; below is a random part of those that have a named target and a result. 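Values are quantile-normalised luminescence on an arbitrary scale; higher means more cells surviving MMS.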 Further read-outs or replicates are left out here.

| gene | amplicon | mean viability with MMS | viability with MMS, replicate 1 |
| --- | --- | --- | --- |
| CG5267 (GeneID 36875) | DRSC06928 | 3.51e6 | 3.96e6 |
| CG17287 (GeneID 36939) | DRSC06659 | 3.53e6 | 3.97e6 |
| ND-B16.6 (GeneID 31578) | DRSC18306 | 3.73e6 | 4.14e6 |
| ND-B16.6 (GeneID 31578) | DRSC22600 | 3.74e6 | 4.19e6 |
| VhaM9.7-a (GeneID 38521) | DRSC08289 | 3.50e6 | 3.90e6 |
| Ir76b (GeneID 40198) | DRSC10831 | 3.64e6 | 4.15e6 |
| CheB42a (GeneID 2768721) | DRSC22881 | 3.31e6 | 3.91e6 |
| Phae2 (GeneID 34638) | DRSC02555 | 3.75e6 | 4.14e6 |
| CG8306 (GeneID 36857) | DRSC07141 | 3.54e6 | 4.00e6 |
| CG15529 (GeneID 43584) | DRSC15066 | 3.25e6 | 3.65e6 |
| AANATL7 (GeneID 31236) | DRSC18616 | 3.51e6 | 4.03e6 |
| CG13689 (GeneID 33241) | DRSC00358 | 3.48e6 | 3.81e6 |
| Taf3 (GeneID 43793) | DRSC17170 | 3.16e6 | 3.74e6 |
| Sr-CII (GeneID 44219) | DRSC07557 | 3.62e6 | 3.99e6 |
| CG7550 (GeneID 38901) | DRSC10875 | 3.57e6 | 4.07e6 |
| aub (GeneID 34524) | DRSC03486 | 3.61e6 | 3.99e6 |
| Diedel3 (GeneID 50358) | DRSC19544 | 3.54e6 | 4.01e6 |
| ATP8 (retired record) (GeneID 192468) | DRSC21277 | 3.48e6 | 3.92e6 |
| CG30491 (GeneID 35704) | DRSC21472 | 3.59e6 | 4.09e6 |
| dpn (GeneID 35800) | DRSC07605 | 3.48e6 | 3.98e6 |
| xit (GeneID 31623) | DRSC18364 | 3.58e6 | 4.13e6 |
| Snx1 (GeneID 33560) | DRSC00531 | 3.65e6 | 4.12e6 |
| BckdhA (GeneID 41149) | DRSC16395 | 3.60e6 | 4.09e6 |
| RanBP3 (GeneID 42804) | DRSC14217 | 3.03e6 | 3.62e6 |
| RanBP3 (GeneID 42804) | DRSC23153 | 3.40e6 | 3.76e6 |
| Asap (GeneID 35783) | DRSC06493 | 3.68e6 | 4.17e6 |
| Asap (GeneID 35783) | DRSC06830 | 3.67e6 | 4.04e6 |
| CG15306 (GeneID 31961) | DRSC17993 | 3.52e6 | 4.08e6 |
| CG15306 (GeneID 31961) | DRSC18240 | 3.52e6 | 3.93e6 |

Records above whose gene name starts with N or n (2):
| gene | amplicon | mean viability with MMS | viability with MMS, replicate 1 |
| --- | --- | --- | --- |
| ND-B16.6 (GeneID 31578) | DRSC18306 | 3.73e6 | 4.14e6 |
| ND-B16.6 (GeneID 31578) | DRSC22600 | 3.74e6 | 4.19e6 |
